The source of these data is paper PMC4336284.

Sequences of proteins named here, by UniProt entry; tags and fusion partners are left off. A change or cut given only in a name is not applied to a line headed by its entry.
UniProt P22813: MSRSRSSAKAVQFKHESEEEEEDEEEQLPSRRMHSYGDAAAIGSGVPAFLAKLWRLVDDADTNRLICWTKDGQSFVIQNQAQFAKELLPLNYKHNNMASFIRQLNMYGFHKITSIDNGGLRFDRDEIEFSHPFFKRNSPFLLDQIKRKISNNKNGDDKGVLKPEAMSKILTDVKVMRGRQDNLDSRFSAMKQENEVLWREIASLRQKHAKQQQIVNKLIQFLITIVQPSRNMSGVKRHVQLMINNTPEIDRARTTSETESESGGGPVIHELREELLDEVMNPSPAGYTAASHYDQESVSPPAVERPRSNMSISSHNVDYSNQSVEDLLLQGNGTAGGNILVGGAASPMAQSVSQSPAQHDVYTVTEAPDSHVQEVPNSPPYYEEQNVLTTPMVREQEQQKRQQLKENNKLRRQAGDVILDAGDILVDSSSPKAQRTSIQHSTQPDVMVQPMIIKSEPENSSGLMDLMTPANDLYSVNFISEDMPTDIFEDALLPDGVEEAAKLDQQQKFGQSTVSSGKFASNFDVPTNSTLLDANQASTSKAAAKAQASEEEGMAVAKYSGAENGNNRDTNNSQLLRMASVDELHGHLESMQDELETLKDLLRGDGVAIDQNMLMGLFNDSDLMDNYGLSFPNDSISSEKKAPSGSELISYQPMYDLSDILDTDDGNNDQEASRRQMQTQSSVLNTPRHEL

Construct, isoform or probe ends are uncertain for at least one entry. Where cells or extracts were used, other partners may take part.

The series deals with HSF (heat shock factor) (Drosophila melanogaster) (UniProt P22813). As to the kind of experiment: EMSA, anti-HSF supershift. The settings on record: extracts after heat shock 37 C, poly(dI-dC) 10 ng, 4.5% acrylamide Tris/borate/EDTA gel, HSF: 10 ug extract protein, protein in an extract, label: 32P. In general terms: In EMSA bound probe runs differently from free probe, usually more slowly.

In the case of “ATCCGAGCGCGCCTCGAATGTTCTAGAA / CCTTTTCTAGAACATTCGAGGCGCGCTC [hsp70Aa HSE oligo]”, the binding result is listed as “binds”.

Turning to “CGTTCGAAGCTTCTCGATACATCTACAGAGTTCCAACAGAATGTTCCCG / TAAATCGTCGGGAACATTCTGTTGGAACTCTGTAGATGTATCGAG [hsp70S4 HSE oligo (-94 to -39)]”, the binding result (similar to hsp70Aa) is recorded as “binds”.

Take “TTTTCGAAGTCTCGACTCTTCTCCAGAGTTCCAACAGAATGTTCCCG / TAAATCGTCGGGAACATTCTGTTGGAACTCTGGAGAAGAGTCGAGAC [hsp70S3 HSE oligo (-94 to -39)]”: the binding result (similar to hsp70Aa) is listed as “binds”.
